## Results of single-concentration screens

Amino acid sequences for entries named in this document (tags omitted).
UniProt P9WFT3, whole entry: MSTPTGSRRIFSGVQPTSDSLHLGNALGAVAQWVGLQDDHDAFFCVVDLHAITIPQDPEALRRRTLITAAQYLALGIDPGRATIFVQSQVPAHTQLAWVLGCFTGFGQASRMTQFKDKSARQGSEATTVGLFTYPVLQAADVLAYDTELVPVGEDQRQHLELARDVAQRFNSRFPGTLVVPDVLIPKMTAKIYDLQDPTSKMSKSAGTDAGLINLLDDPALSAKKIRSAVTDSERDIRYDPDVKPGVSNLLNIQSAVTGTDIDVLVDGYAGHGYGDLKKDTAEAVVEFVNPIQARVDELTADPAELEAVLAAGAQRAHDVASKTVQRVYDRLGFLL
UniProt P9WPC5, whole entry: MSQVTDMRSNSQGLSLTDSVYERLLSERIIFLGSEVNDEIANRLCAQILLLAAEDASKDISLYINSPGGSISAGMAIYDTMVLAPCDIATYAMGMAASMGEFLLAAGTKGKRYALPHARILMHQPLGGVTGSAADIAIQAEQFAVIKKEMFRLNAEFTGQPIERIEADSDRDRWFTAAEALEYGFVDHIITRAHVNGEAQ
UniProt P9WPC3, whole entry partner: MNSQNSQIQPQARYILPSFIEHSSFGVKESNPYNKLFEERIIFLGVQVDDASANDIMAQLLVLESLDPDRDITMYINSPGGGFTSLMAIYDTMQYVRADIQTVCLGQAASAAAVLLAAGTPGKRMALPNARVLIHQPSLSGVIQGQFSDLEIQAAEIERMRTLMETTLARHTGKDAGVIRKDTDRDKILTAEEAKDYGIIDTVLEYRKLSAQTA

Values are the deposited “Percent Effect”, in %.
The controls that fix the scale are not given in the record; negative values are as filed.
The compounds are a random part of those screened.

A: 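Enzyme assay of tryptophanyl-tRNA synthetase; the read-out is not stated. Target: Tryptophan-tRNA ligase, Mycobacterium tuberculosis (UniProt P9WFT3). Concentration: 10 µM. Direction is not recorded; retested compounds ran higher, which suggests that high means inhibition. About 65,000 compounds were tested under these conditions; 0.098% (about 64) showed 50% or more at least once.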
B: 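Protease assay of ClpP1P2, read by the AMC dye that it sets free. Target: ClpP1P2, Mycobacterium tuberculosis (UniProt P9WPC5 and UniProt P9WPC3). Concentration: 50 µM. Higher reads as stronger inhibition, judged from the few compounds that gave an IC50. Most other retested compounds had strongly negative values. Of about 69,000 compounds tested this way, about 10 (0.015%) reached 50% or more in at least one test.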

Result for CCCN(CCc1ccccc1)C(=O)c1ccccc1NCC(=O)O was A: -3.451%; B: -22.74%.
Result for COCCC1(CO)CCCN(Cc2ccc(C(F)(F)F)nc2)C1 (stereo not drawn) was A: -3.823%; B: -1.66%.
Result for CCc1ccc(CN(Cc2ccccc2)CC(C)CO)nc1 (stereo not drawn) was A: -2.309%; B: -7.549%.
Result for CN(C)CCN1CC(C(=O)NCc2cccc(-n3cccn3)c2)CC1=O (stereo not drawn) was A: 5.74%; B: -3.958%.
Result for CS(=O)(=O)Nc1ccn(Cc2ccc(Br)cc2)n1 was A: 3.886%; B: -7.961%.
Result for CSCCC(O)C(=O)N1CCN(Cc2cccc(Cl)c2)CC1 (stereo not drawn) was A: 3.336%; B: -20.05%.
Result for CCN1CCN(C(=O)c2ccc(Cn3ccccc3=O)o2)CC1 was A: -3.483%; B: -17.33%.
Result for COc1cc2nc3n(c(=O)c2cc1OC)CCN(C)CC3 was A: -3.261%; B: -4.298%.
Result for Cc1nn2cccnc2c1C(=O)NCc1ccccc1OCC1CC1 was A: 1.961%; B: -9.207%.
Result for O=C1CN(C(=O)OCc2ccccc2)CC(O)CN1Cc1ccco1 (stereo not drawn) was B: 10.98%.
Result for c1ccc(OCc2noc(CN3CCC(N4CCSCC4)CC3)n2)cc1 was A: 0.1487%; B: 2.338%.
Result for COc1ccccc1C(CNC(=O)NCc1cc[nH]n1)N1CCCC1 (stereo not drawn) was A: 19.26%; B: -10.9%.
Result for COc1ccc(CN2CCC=C(C(C)NC(C)=O)C2)cc1 (stereo not drawn) was A: -0.7524%; B: -20.66%.
Result for c1ccc(-c2nc(CCNc3nnc(C4CCC4)o3)no2)cc1 was A: 2.047%; B: -11.54%.
Result for CSc1nnc(CC2CCN(C(=O)COc3cccnc3)CC2)n1C was A: -6.351%; B: -6.18%.
Result for COc1ccccc1C(=O)N1CCOC2(CCCN(C(C)=O)C2)C1 (stereo not drawn) was A: 1.876%; B: -6.777%.
Result for Cc1ccc(CN2CC(C(=O)N3CCCC3)C3(CCOCC3)C2)s1 (stereo not drawn) was A: 6.191%; B: -9.265%.
Result for COCC1CN(Cc2ccc(C)o2)Cc2nnn(C)c21 (stereo not drawn) was A: -1.365%; B: -4.502%.
Result for COc1ccc(C(=O)N2CCC(c3nccn3C(C)C)CC2)cc1OC was A: 1.812%; B: -7.78%.
Result for O=C(Cc1n[nH]c(-c2cncc(Br)c2)n1)NCc1ccccn1 was A: -2.685%; B: -5.554%.
Result for c1ccc(CN2CCCC2)c(CNc2cncc3nnnn23)c1 was A: -0.25%; B: 12.05%.
Result for CC(C)Cc1cc(CNC(=O)c2cccc3c2NCCC3)no1 was A: -1.816%; B: -38.25%.
Result for CNC(=O)NC(C)c1nc(-c2ccccc2)c[nH]1 (stereo not drawn) was A: -6.767%; B: 8.19%.

Some entries from above, unchanged:

| structure | A | B |
|---|---|---|
| `Cc1nn2cccnc2c1C(=O)NCc1ccccc1OCC1CC1` | 1.961% | -9.207% |
| `CS(=O)(=O)Nc1ccn(Cc2ccc(Br)cc2)n1` | 3.886% | -7.961% |

Measurements from “University of Dundee, Small-Polar-MMV Screening Library” (2021), ChEMBL document CHEMBL3988442.